The values that follow come from PMC11731006, “Structural insight into Okazaki fragment maturation mediated by PCNA-bound FEN1 and RNaseH2”.

This experiment concerns the target T1, RNaseH2C, subunit of RNaseH2 (human (endogenous in HEK293)) (UniProt Q8TDP1).
T1 sequence: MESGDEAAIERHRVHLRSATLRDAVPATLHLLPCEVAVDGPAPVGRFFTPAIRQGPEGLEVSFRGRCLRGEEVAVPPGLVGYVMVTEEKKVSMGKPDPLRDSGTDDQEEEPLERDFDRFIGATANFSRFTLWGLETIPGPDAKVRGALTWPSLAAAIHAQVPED
Briefly: cryo-EM structure; endogenous PCNA-FEN1-RNaseH2 complex with bound DNA from glycerol gradient Fractions 9-12; four states (A-D), 5.2-6.6 Å, local map of RNaseH2 4.26 Å; RNaseH2 modelled from AlphaFold2 prediction fitted to the map.

These are yes or no findings as the source states them, for the method shown. Some results given as binding are weak or reduced against the parent protein; the word gives no strength.

B1: RNaseH2B, subunit of RNaseH2 (protein, UniProt Q5TBB1 1-312)
chain: MAAGVDCGDGVGARQHVFLVSEYLKDASKKMKNGLMFVKLVNPCSGEGAIYLFNMCLQQLFEVKVFKEKHHSWFINQSVQSGGLLHFATPVDPLFLLLHYLIKADKEGKFQPLDQVVVDNVFPNCILLLKLPGLEKLLHHVTEEKGNPEIDNKKYYKYSKEKTLKWLEKKVNQTVAALKTNNVNVSSRVQSTAFFSGDQASTDKEEDYIRYAHGLISDYIPKELSDDLSKYLKLPEPSASLPNPPSKKIKLSDEPVEAKEDYTKFNTKDLKTEKKNSKMTAAQKALAKVDKSGMKSIDTFFGVKNKKKIGKV
B1: the binding result is “binds”.
